Measured values taken from patent US20160257728A1.
Results are given in words; binding and its absence hold for the method and conditions named. Some results given as binding are weak or reduced against the parent protein; the word gives no strength. For some of these results: Sequences can lack the tags named with a protein.

By UniProt entry, the sequences of proteins in these tests, tags left out. Residues count along the entry.
UniProt P37023, residues 22-118: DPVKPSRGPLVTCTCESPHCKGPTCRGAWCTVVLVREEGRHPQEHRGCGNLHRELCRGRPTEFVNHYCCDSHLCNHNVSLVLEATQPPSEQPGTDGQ
UniProt P27037: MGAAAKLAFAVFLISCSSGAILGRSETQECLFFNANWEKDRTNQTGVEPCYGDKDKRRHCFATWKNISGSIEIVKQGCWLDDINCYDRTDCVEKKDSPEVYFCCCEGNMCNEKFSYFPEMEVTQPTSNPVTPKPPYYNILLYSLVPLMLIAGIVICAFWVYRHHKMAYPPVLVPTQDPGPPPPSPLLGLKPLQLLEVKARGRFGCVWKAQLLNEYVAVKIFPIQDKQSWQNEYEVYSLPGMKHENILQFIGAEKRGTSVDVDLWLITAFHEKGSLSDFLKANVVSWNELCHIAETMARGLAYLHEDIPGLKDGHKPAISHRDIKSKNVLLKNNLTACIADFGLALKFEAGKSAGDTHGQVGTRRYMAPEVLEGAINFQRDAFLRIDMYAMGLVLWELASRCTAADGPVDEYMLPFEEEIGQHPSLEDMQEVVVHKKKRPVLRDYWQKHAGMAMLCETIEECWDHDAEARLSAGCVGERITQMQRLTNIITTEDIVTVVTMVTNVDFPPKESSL

What was measured:
ALK1 ECD-Fc (human) [1] = target: ALK1 ECD-Fc (human) (UniProt P37023); test: receptor binding analysis (SPR)
ActRIIb ECD-Fc (human) [2] = target: T1, ActRIIb ECD-Fc (human) (UniProt Q13705); test: receptor binding analysis (SPR)
T1 sequence (looked up): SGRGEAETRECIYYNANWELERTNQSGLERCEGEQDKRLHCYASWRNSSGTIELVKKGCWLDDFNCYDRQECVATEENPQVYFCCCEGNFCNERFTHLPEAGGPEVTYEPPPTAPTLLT

BMPRII ECD-Fc (human) [3] = target: T2, BMPRII ECD-Fc (human) (UniProt Q13873); test: receptor binding analysis (SPR)
T2 sequence (looked up): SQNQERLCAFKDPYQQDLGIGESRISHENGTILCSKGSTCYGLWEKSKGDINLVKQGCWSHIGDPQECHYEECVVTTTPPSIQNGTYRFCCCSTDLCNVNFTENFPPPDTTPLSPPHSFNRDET

ActRIIa ECD-Fc (human) = ActRIIa ECD-Fc (human) (UniProt P27037); test: SPR, immobilised receptor ECDs
ALK1 ECD-Fc (human) [4] = target: ALK1 ECD-Fc (human) (UniProt P37023); test: SPR, immobilised receptor ECDs
ActRIIb ECD-Fc (human) [5] = target: T1, ActRIIb ECD-Fc (human); test: SPR, immobilised receptor ECDs
BMPRII ECD-Fc (human) [6] = target: T2, BMPRII ECD-Fc (human); test: SPR, immobilised receptor ECDs

Measured: binding

B1: MB109 protein (bioactive recombinant human BMP-9 expressed in E. coli and refolded; functional dimer) (ligand)
chain: MSAGAGSHCQKTSLRVNFEDIGWDSWIIAPKEYEAYECKGGCFFPLADDVTPTKHAIVQTLVHLKFPTKVGKACCVPTKLSPISVLYKDDMGVPTLKYHYEGMSVAECGCR
binds: ALK1 ECD-Fc (human) [1] | ActRIIb ECD-Fc (human) [2] | BMPRII ECD-Fc (human) [3] | ActRIIa ECD-Fc (human) | ALK1 ECD-Fc (human) [4] | ActRIIb ECD-Fc (human) [5] | BMPRII ECD-Fc (human) [6]
